# Results reported in patent US9850282B2, “Stable pentadecapeptide salts, a process for preparation thereof, a use thereof in the manufacture of pharmaceutical preparations and a use thereof in therapy” (priority 2013, dated 2017).
# Where a name gives a salt, the structure may show the parent alone. Not every detail of the peptide structures is certain; ends, links or a residue may be inferred. Residues, ends and D or L forms follow the SMILES beside them.
# Legend:
# Type in all cases: physicochemical
# [1] = Accelerated ageing at 50° C. and relative humidity of 65%
# [2] = Stability in water solutions (1 g/100 ml) at 50° C.; details: for Pentadecapeptide content decrement in water at 50° C./time (hours): 20: 20 hours; for Pentadecapeptide content decrement in water at 50° C./time (hours): 65: 65 hours; for Pentadecapeptide content decrement in water at 50° C./time (hours): 388: 388 hours; for pH: aqueous salt solution 1 g/100 ml; for Pentadecapeptide content decrement in water at 50° C./time (hours): start/0: start/0 hours
# Experimental: (§1) This addition will be in the range from 0.5 mg to 3.0 mg per 1 mg of bepecin. […] The stability of bepecin salt with L-arginine in water solutions was determined after incubation of aqueous salt solutions in concentration 1 g/100 ml, at 50° C., and in a separate test in very stringent conditions: at 100° C., where the decomposition was determined after one hour.
# [3] = Stability in water at 100° C., 1 hour
# Experimental: as §1
SMILES,Pentadecapeptide content decrement in standing at 50° C. and relat. humidity 65%: 60 days [1] [%],Pentadecapeptide content decrement in standing at 50° C. and relat. humidity 65%: 90 days [1] [%],Pentadecapeptide content decrement in water at 50° C./time (hours): 20 [2] [%],Pentadecapeptide content decrement in water at 50° C./time (hours): 65 [2] [%],Pentadecapeptide content decrement in water at 50° C./time (hours): 388 [2] [%],pH [2],Pentadecapeptide content decrement in water at 50° C./time (hours): start/0 [2] [%],Pentadecapeptide content decrement in water at 100° C. - 1 hour: after 1 hour [3] [%],Pentadecapeptide content decrement in water at 100° C. - 1 hour: start [3] [%],Pentadecapeptide content decrement in water at 50° C./time (hours): 148 ([2]; 148 hours) [%]
CC(C)C[C@H](NC(=O)CNC(=O)[C@H](C)NC(=O)[C@H](CC(=O)O)NC(=O)[C@H](CC(=O)O)NC(=O)[C@H](C)NC(=O)[C@@H]1CCCN1C(=O)[C@H](CCCCN)NC(=O)CNC(=O)[C@@H]1CCCN1C(=O)[C@@H]1CCCN1C(=O)[C@@H]1CCCN1C(=O)[C@H](CCC(=O)O)NC(=O)CN)C(=O)N[C@H](C(=O)O)C(C)C [BPC Na salt] (H-GEPPPGKPADDAGLV-OH; N-terminus and C-terminus assumed),97.38,97.14,98.36,97.47,96.74,8.42,99.01,98.56,99.01,–
CC(C)C[C@H](NC(=O)CNC(=O)[C@H](C)NC(=O)[C@H](CC(=O)O)NC(=O)[C@H](CC(=O)O)NC(=O)[C@H](C)NC(=O)[C@@H]1CCCN1C(=O)[C@H](CCCCN)NC(=O)CNC(=O)[C@@H]1CCCN1C(=O)[C@@H]1CCCN1C(=O)[C@@H]1CCCN1C(=O)[C@H](CCC(=O)O)NC(=O)CN)C(=O)N[C@H](C(=O)O)C(C)C [BPC acetate] (H-GEPPPGKPADDAGLV-OH; N-terminus and C-terminus assumed),85.49,85.90,71.17,55.25,21.30,3.88,98.89,56.80,98.89,52.55
